Source: paper PMC7563687
These are yes or no findings as the source states them, for the method shown. Binding seen in cells or lysates may run through a third protein. Some results given as binding are weak or reduced against the parent protein; the word gives no strength.

By UniProt entry, the sequences of proteins in these tests, tags left out.
UniProt Q9WV30: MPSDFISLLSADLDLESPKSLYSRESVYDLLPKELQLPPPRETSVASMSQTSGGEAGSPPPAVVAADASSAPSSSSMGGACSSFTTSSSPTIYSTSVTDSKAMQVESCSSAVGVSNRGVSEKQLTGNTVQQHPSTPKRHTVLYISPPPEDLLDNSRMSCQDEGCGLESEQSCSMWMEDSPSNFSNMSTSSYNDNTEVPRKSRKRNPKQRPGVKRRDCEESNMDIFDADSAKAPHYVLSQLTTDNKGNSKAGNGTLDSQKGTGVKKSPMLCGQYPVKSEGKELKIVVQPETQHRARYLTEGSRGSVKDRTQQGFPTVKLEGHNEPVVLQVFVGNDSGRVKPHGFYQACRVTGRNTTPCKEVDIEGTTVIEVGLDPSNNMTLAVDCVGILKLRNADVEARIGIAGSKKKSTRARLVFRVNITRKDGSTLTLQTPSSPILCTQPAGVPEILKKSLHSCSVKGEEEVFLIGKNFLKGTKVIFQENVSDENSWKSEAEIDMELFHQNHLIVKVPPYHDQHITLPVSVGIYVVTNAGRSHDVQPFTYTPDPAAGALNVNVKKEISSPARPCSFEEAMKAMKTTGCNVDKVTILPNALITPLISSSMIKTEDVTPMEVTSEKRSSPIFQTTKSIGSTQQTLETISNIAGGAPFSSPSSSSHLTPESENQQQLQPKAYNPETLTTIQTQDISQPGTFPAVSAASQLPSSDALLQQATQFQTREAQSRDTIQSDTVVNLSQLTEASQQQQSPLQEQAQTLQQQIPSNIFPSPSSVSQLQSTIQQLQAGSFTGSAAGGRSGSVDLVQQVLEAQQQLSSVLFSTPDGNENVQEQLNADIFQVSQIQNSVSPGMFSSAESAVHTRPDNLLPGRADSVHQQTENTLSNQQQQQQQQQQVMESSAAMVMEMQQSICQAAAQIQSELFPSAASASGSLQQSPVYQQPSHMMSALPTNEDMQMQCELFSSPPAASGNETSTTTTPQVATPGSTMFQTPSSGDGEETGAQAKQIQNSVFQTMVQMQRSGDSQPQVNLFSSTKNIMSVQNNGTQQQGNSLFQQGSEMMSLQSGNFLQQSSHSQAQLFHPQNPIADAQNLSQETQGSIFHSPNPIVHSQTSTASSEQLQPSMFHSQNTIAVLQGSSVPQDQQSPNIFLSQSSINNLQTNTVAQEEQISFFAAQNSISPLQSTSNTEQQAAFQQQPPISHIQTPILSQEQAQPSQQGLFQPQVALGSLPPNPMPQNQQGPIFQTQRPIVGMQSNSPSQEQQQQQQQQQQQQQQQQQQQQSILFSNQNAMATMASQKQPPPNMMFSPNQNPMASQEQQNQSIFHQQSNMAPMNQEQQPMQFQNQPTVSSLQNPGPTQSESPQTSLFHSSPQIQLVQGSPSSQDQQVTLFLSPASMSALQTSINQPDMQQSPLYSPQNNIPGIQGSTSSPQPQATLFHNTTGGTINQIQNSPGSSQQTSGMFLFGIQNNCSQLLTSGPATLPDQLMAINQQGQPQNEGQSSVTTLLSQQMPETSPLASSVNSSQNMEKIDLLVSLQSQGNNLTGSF
UniProt Q9ESK9: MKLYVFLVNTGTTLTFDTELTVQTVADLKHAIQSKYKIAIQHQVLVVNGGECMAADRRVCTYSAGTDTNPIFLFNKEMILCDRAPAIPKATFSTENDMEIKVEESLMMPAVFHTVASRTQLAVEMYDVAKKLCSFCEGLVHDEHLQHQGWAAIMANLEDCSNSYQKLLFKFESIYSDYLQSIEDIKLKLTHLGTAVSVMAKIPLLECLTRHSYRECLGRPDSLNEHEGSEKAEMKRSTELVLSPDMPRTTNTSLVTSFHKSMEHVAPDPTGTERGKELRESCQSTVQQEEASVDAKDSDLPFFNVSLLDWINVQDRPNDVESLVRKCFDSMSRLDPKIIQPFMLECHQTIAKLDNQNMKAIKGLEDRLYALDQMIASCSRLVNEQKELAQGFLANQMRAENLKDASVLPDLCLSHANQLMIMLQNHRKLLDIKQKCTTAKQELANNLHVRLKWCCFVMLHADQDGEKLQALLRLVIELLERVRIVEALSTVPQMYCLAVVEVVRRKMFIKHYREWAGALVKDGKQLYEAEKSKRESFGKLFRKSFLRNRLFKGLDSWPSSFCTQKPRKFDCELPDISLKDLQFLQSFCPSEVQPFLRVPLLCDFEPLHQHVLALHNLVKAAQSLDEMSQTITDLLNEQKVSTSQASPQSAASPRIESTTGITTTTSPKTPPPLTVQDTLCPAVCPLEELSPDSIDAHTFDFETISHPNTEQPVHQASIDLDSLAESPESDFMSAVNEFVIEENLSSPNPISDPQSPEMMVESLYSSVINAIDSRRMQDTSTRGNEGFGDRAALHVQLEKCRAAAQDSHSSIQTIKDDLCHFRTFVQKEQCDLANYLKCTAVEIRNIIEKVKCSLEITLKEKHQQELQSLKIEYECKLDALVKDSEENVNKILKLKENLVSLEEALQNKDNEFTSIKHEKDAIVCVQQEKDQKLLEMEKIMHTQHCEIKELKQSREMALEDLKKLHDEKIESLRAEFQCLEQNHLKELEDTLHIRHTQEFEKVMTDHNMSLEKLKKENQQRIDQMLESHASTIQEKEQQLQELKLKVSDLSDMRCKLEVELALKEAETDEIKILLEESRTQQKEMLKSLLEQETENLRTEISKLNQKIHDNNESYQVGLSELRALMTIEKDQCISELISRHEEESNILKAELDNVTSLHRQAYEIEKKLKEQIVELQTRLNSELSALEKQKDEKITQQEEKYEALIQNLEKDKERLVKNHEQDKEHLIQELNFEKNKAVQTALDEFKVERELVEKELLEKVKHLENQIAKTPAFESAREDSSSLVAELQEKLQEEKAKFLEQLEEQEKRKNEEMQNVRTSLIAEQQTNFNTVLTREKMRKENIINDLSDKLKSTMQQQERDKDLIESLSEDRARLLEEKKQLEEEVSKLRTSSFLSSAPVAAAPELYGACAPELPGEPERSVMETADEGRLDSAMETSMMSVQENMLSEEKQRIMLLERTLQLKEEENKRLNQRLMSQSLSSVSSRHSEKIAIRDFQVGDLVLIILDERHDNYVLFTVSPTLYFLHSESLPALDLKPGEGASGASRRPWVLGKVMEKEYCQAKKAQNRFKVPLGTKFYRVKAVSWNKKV

Biological target: Tonicity-responsive enhancer-binding protein (TonEBP), endogenous in MIN6-M9 cells (mouse (endogenous in MIN6-M9)) (UniProt Q9WV30)
Assay: co-IP; endogenous proteins; MIN6-M9 cell lysates (RIPA buffer) immunoprecipitated with TonEBP antibody or normal serum, immunoblotted for FIP200 and TonEBP

**Q.** “FIP200, endogenous in MIN6-M9 cells (from UniProt Q9ESK9 1-1588)” was tested. Which binding did it give?
**A.** binds
